The list shows a part of the results. Repeats are few or missing, and single values can be far off.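 Cells were imaged in 1,536-well plates, and nuclei stained with an antibody against cleaved PARP were counted against all DNA-stained nuclei to give the apoptosis fraction. Screening doses were chosen to leave most cells alive, and resting and induced cleaved-PARP levels differ strongly between cell lines.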
Legend:
Assay in all cases: cleaved PARP positive nuclei fraction relative to DMSO control; melanoma cells; higher = more apoptosis
Details in all cases: library dose: low library concentration; 72 h
MZ2-MEL = tested on: MZ2-MEL
MeWo = tested on: MeWo
RPMI7951 = tested on: RPMI7951
RVH-421 = tested on: RVH-421
SkMel28 = tested on: SkMel28
SkMel2 = tested on: SkMel2
SkMel30 = tested on: SkMel30
SkMel5 = tested on: SkMel5
UACC257 = tested on: UACC257
UACC62 = tested on: UACC62
WM115 = tested on: WM115
WM1716 = tested on: WM1716
WM1745 = tested on: WM1745
WM3526 = tested on: WM3526
WM3619 = tested on: WM3619
WM451Lu = tested on: WM451Lu

SMILES	cleaved PARP positive nuclei fraction (MZ2-MEL) [%]	cleaved PARP positive nuclei fraction (MeWo) [%]	cleaved PARP positive nuclei fraction (RPMI7951) [%]	cleaved PARP positive nuclei fraction (RVH-421) [%]	cleaved PARP positive nuclei fraction (SkMel28) [%]	cleaved PARP positive nuclei fraction (SkMel2) [%]	cleaved PARP positive nuclei fraction (SkMel30) [%]	cleaved PARP positive nuclei fraction (SkMel5) [%]	cleaved PARP positive nuclei fraction (UACC257) [%]	cleaved PARP positive nuclei fraction (UACC62) [%]	cleaved PARP positive nuclei fraction (WM115) [%]	cleaved PARP positive nuclei fraction (WM1716) [%]	cleaved PARP positive nuclei fraction (WM1745) [%]	cleaved PARP positive nuclei fraction (WM3526) [%]	cleaved PARP positive nuclei fraction (WM3619) [%]	cleaved PARP positive nuclei fraction (WM451Lu) [%]
NC1(c2ccc(-c3nc4ccn5c(=O)[nH]nc5c4cc3-c3ccccc3)cc2)CCC1 + O=C(Nc1ccccc1)c1cc([N+](=O)[O-])ccc1Cl [GW9662] (first compound 0.4 µM, partner dose 2 µM)	154	87.9	80.3	234	35.9	124	70.2	91.6	19	1370	23.2	27.9	109	203	85.3	66.9
C[C@@H](N)c1ccc(C(=O)Nc2ccnc3[nH]ccc23)cc1 + CCc1ccc(CCOc2ccc(CC3SC(=O)NC3=O)cc2)nc1 [pioglitazone] (first compound 0.4 µM, partner dose 2 µM)	115	124	96.8	126	220	125	273	87.5	76.8	130	74.6	267	108	66	120	79.7
NC1(c2ccc(-c3nc4ccn5c(=O)[nH]nc5c4cc3-c3ccccc3)cc2)CCC1 + O=C(O)C(=O)Nc1sc2c(c1C(=O)O)CCNC2 [TCS401] (first compound 0.4 µM, partner dose 1.66667 µM)	180	70.7	90.7	136	262	59	48.6	172	153	193	124	147	119	54.7	100	166
COc1ccc(C2=N[C@@H](c3ccc(Cl)cc3)[C@@H](c3ccc(Cl)cc3)N2C(=O)N2CCNC(=O)C2)c(OC(C)C)c1 [Nutlin-3] + CC(C)(C)c1cnc(CSc2cnc(NC(=O)C3CCNCC3)s2)o1 [SNS-032] (first compound 0.1 µM, partner dose 0.01 µM)	315	955	50.1	171	96.9	159	62.9	138	54.1	125	95.8	58.6	214	31.5	217	144
CCN(CC)CCNC(=O)c1c(C)[nH]c(/C=C2\C(=O)Nc3ccc(F)cc32)c1C [sunitinib] + COc1ccc(-c2ccc3c(N4CCOCC4)nc(N4C[C@@H](C)O[C@@H](C)C4)nc3n2)cc1CO [KU0063794] (first compound 0.4 µM, partner dose 0.02 µM)	14.7	1090	39.5	45	372	81.2	84.4	74.7	188	200	168	81.2	109	99.1	83.8	67.8
Cn1cnc2c(F)c(Nc3ccc(Br)cc3Cl)c(C(=O)NOCCO)cc21 [selumetinib] + COC(=O)c1sccc1S(=O)(=O)Nc1ccc(Nc2ccccc2)cc1OC [GSK0660] (first compound 0.015 µM, partner dose 1 µM)	141	122	150	132	143	81	85.2	66.6	258	198	167	107	84.2	106	163	74.1
Cn1cnc2c(F)c(Nc3ccc(Br)cc3Cl)c(C(=O)NOCCO)cc21 [selumetinib] + CC(C)CCN1c2nc(Nc3cc(F)c(O)c(F)c3)ncc2N(C)C(=O)C1C [BID1870] (first compound 0.015 µM, partner dose 0.2 µM)	146	154	29.5	110	183	198	37.4	143	129	258	99.6	113	107	80.7	140	73.9
CCCCCCCCc1ccc(CCC(N)(CO)CO)cc1 [fingolimod] + CCN(CC)CCCCNc1ncc2cc(-c3cc(OC)cc(OC)c3)c(NC(=O)NC(C)(C)C)nc2n1 [PD173074] (first compound 2 µM, partner dose 0.1 µM)	160	62.4	71.5	36.3	203	73.7	392	153	45	207	191	256	96.3	111	100	48.6
COc1ccc(C2=N[C@@H](c3ccc(Cl)cc3)[C@@H](c3ccc(Cl)cc3)N2C(=O)N2CCNC(=O)C2)c(OC(C)C)c1 [Nutlin-3] + C=CCn1c(=O)c2cnc(Nc3ccc(N4CCN(C)CC4)cc3)nc2n1-c1cccc(C(C)(C)O)n1 [MK1775] (first compound 0.1 µM, partner dose 0.02 µM)	97.6	66.8	48.8	44.6	81.5	135	220	33.2	79.1	209	179	156	119	69.4	134	52.5
NC(=O)c1ccc(N(C(N)=O)c2c(F)cccc2F)nc1-c1ccc(F)cc1F + COc1ccc2c(c1)CCC1C2CCC2(C)C(NCCCCCCN3C(=O)C=CC3=O)CCC12 [U73122] (first compound 0.4 µM, partner dose 0.4 µM)	102	82.9	275	107	176	132	164	209	148	117	76.8	67	117	70.9	105	142
CS(=O)(=O)c1ccc(C(=O)Nc2ccc(Cl)c(-c3ccccn3)c2)c(Cl)c1 [vismodegib] + NC(=O)Nc1cc(-c2cccc(F)c2)sc1C(=O)N[C@H]1CCCNC1 [AZD7762] (first compound 1 µM, partner dose 0.02 µM)	68	175	174	72.4	75.2	68.4	67.8	43.8	47	127	209	104	88.2	67.8	159	60
Cn1sc(=O)n(Cc2ccccc2)c1=O + NC(=O)Nc1cc(-c2cccc(F)c2)sc1C(=O)N[C@H]1CCCNC1 [AZD7762] (first compound 0.4 µM, partner dose 0.02 µM)	151	117	116	166	47.1	103	76	43.2	130	46.8	133	88	83.8	246	223	78.4
C[C@]1(O)C[C@@H](c2nc(-c3ccc4ccc(-c5ccccc5)nc4c3)c3c(N)nccn32)C1 + COc1ccc(COc2ccc(Cc3cnc(N)nc3N)cc2OC)cc1 [GW2580] (first compound 0.4 µM, partner dose 1 µM)	83.5	162	63.4	440	76.6	66.3	77	85	138	83.2	106	48.5	119	84.1	89.9	214
NC(=O)c1ccc(N(C(N)=O)c2c(F)cccc2F)nc1-c1ccc(F)cc1F + Cn1cc(/C=C2\C(=O)Nc3cccnc32)c2ccccc21 [GW441756] (first compound 0.4 µM, partner dose 0.4 µM)	114	62.2	96.8	104	85.5	62.2	75.7	170	120	126	152	188	94.8	69.3	90.2	31.9
COc1ccc(C2=N[C@@H](c3ccc(Cl)cc3)[C@@H](c3ccc(Cl)cc3)N2C(=O)N2CCNC(=O)C2)c(OC(C)C)c1 [Nutlin-3] + CCN(CC)CCCCNc1ncc2cc(-c3cc(OC)cc(OC)c3)c(NC(=O)NC(C)(C)C)nc2n1 [PD173074] (first compound 0.1 µM, partner dose 0.1 µM)	161	163	32.6	224	230	123	125	92.9	63.4	187	87.9	57	195	72.5	106	155
C[C@]1(O)C[C@@H](c2nc(-c3ccc4ccc(-c5ccccc5)nc4c3)c3c(N)nccn32)C1 + CCc1ccc(CCOc2ccc(CC3SC(=O)NC3=O)cc2)nc1 [pioglitazone] (first compound 0.4 µM, partner dose 2 µM)	84.3	46.2	120	63.1	108	133	87.9	79.5	215	169	113	51.3	115	185	112	71.7
CC1(C)CCC(c2ccc(Cl)cc2)=C(CN2CCN(c3ccc(C(=O)NS(=O)(=O)c4ccc(N[C@H](CCN5CCOCC5)CSc5ccccc5)c(S(=O)(=O)C(F)(F)F)c4)cc3)CC2)C1 + CN(NC(=O)CC(=O)NN(C)C(=S)c1ccccc1)C(=S)c1ccccc1 [STA4783] (first compound 0.4 µM, partner dose 0.006 µM)	240	59.7	113	21.1	140	123	175	281	211	98.8	676	411	1080	55.4	147	89
Cn1cnc2c(F)c(Nc3ccc(Br)cc3Cl)c(C(=O)NOCCO)cc21 [selumetinib] + Cc1ccc(NC(=O)c2cccc(N(C)C)c2)cc1NC(=O)c1ccc(O)cc1 [ZM336372] (first compound 0.015 µM, partner dose 2 µM)	193	114	105	184	302	184	59.9	92.2	112	124	214	41.9	105	66.2	58.6	144

Pulled one by one from the list above:
SMILES	cleaved PARP positive nuclei fraction (MZ2-MEL) [%]	cleaved PARP positive nuclei fraction (MeWo) [%]	cleaved PARP positive nuclei fraction (RPMI7951) [%]	cleaved PARP positive nuclei fraction (RVH-421) [%]	cleaved PARP positive nuclei fraction (SkMel28) [%]	cleaved PARP positive nuclei fraction (SkMel2) [%]	cleaved PARP positive nuclei fraction (SkMel30) [%]	cleaved PARP positive nuclei fraction (SkMel5) [%]	cleaved PARP positive nuclei fraction (UACC257) [%]	cleaved PARP positive nuclei fraction (UACC62) [%]	cleaved PARP positive nuclei fraction (WM115) [%]	cleaved PARP positive nuclei fraction (WM1716) [%]	cleaved PARP positive nuclei fraction (WM1745) [%]	cleaved PARP positive nuclei fraction (WM3526) [%]	cleaved PARP positive nuclei fraction (WM3619) [%]	cleaved PARP positive nuclei fraction (WM451Lu) [%]
Cn1cnc2c(F)c(Nc3ccc(Br)cc3Cl)c(C(=O)NOCCO)cc21 [selumetinib] + COC(=O)c1sccc1S(=O)(=O)Nc1ccc(Nc2ccccc2)cc1OC [GSK0660] (first compound 0.015 µM, partner dose 1 µM)	141	122	150	132	143	81	85.2	66.6	258	198	167	107	84.2	106	163	74.1
Cn1sc(=O)n(Cc2ccccc2)c1=O + NC(=O)Nc1cc(-c2cccc(F)c2)sc1C(=O)N[C@H]1CCCNC1 [AZD7762] (first compound 0.4 µM, partner dose 0.02 µM)	151	117	116	166	47.1	103	76	43.2	130	46.8	133	88	83.8	246	223	78.4

Reference: the supplement of paper PMC4604168 (melanoma cell lines)
